{"sequences": {"note": "Sequences of proteins named here, by UniProt entry; tags and fusion partners are left off.", "UniProt Q9W3M3": "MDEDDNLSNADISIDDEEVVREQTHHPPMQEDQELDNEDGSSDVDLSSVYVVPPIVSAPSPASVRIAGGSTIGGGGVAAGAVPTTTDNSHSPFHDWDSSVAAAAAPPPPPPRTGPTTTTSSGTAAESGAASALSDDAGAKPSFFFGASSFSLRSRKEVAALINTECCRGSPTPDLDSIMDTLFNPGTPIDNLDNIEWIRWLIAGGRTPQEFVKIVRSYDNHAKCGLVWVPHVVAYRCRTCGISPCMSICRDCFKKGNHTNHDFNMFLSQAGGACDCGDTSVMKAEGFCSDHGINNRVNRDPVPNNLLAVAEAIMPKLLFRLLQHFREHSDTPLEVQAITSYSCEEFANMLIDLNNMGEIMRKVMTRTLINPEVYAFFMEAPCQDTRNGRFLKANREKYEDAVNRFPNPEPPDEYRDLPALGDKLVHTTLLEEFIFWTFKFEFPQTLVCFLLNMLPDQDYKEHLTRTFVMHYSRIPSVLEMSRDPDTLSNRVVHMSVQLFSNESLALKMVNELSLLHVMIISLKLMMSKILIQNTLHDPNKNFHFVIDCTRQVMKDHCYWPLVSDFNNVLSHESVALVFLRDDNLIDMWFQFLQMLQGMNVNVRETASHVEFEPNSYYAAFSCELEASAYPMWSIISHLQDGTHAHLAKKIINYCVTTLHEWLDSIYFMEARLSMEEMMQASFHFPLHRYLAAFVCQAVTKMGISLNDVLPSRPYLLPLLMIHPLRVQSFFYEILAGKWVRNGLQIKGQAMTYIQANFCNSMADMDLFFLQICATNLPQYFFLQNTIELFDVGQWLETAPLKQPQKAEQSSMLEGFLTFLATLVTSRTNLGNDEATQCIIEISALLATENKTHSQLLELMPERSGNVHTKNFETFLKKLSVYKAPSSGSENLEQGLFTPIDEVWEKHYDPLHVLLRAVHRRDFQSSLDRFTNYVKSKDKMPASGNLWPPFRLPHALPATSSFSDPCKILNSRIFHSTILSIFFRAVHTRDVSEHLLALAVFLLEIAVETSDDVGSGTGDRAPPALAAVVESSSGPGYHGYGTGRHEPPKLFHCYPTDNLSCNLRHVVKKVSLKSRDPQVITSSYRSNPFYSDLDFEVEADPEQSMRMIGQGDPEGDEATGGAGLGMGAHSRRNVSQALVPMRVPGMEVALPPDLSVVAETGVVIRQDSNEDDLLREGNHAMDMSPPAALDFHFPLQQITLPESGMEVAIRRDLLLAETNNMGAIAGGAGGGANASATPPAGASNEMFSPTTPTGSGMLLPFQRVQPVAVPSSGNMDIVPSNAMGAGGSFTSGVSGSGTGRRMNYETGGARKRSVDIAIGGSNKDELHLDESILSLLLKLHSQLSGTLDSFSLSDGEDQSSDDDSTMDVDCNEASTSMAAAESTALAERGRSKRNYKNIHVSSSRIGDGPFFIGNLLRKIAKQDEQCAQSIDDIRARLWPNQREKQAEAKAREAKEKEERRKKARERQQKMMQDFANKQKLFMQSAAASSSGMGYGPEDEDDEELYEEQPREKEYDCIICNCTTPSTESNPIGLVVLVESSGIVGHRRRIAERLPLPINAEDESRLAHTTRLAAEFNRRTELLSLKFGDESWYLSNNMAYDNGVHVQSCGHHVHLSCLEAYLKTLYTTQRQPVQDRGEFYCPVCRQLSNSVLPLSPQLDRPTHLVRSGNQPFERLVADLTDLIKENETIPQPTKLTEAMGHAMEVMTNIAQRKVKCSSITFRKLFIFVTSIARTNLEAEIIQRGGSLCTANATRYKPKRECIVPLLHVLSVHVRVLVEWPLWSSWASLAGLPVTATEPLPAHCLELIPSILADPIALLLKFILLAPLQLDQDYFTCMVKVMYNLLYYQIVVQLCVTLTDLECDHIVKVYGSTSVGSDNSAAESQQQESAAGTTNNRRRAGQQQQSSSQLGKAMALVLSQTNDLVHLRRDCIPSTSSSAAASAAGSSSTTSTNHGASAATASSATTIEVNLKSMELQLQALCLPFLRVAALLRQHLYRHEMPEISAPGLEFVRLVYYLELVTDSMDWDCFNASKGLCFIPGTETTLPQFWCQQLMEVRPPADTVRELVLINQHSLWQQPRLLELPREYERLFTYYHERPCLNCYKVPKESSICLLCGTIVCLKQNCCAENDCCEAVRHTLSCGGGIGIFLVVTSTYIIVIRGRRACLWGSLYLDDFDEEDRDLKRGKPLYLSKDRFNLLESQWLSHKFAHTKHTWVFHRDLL"}, "source": "paper PMC10635573", "key": {"[1]": {"target": "T1, DIAP1, GFP-tagged (Drosophila) (UniProt Q24306)", "T1 sequence": "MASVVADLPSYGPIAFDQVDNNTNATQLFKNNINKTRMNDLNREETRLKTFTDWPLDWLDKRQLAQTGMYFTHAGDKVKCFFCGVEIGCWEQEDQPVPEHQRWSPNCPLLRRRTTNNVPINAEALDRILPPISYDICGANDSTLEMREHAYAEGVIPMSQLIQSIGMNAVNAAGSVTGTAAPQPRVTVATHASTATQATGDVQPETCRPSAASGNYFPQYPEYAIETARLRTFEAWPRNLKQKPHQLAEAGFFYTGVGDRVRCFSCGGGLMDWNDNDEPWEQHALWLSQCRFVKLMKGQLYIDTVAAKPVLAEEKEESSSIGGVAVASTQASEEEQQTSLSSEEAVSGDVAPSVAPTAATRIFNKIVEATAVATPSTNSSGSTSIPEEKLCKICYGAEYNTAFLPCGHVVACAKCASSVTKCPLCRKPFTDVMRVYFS", "assay": "co-IP; Ubr3::V5 and DIAP1::GFP co-expressed in S2 cells without pri; immunoprecipitation with anti-GFP or anti-V5 antibodies, western blot"}, "[2]": {"target": "T1, DIAP1, GFP-tagged (Drosophila)", "assay": "co-IP; Ubr3::V5 and DIAP1::GFP co-expressed in S2 cells with pri (pMT-pri induced by CuSO4 at 1 mM for 2 hours); immunoprecipitation with anti-GFP or anti-V5 antibodies, western blot"}}, "note": "No constants are given. Whether binding was seen depends on the method and setting. In cells and extracts the contact can be indirect. Some entries that bind do so weakly or less than the wild type. Tags and fused reporters may be left off the sequences shown."}
{"substance": "E3 ubiquitin ligase Ubr3, V5-tagged (from UniProt Q9W3M3 1-2219) (enzyme)", "values": [{"measurement": "binding", "setting": "[1]", "value": "binds weakly"}, {"measurement": "binding", "setting": "[2]", "value": "binds"}]}
